This is one part of the list. These are further read-outs of the screen, such as a control signal, another cell line or another target. No call is given for them. Compounds called inactive in the main read-out are mostly missing here. Words in brackets tell the shape of the fitted curve; partial curves, single points and poor fits give uncertain potencies.

For orientation: AC50 means the midpoint of the concentration-response curve, whichever way the signal moves.

This assay can be described thus: qHTS Assay for Identifying the Cell-Membrane Permeable IMPase Inhibitors. The note with it: CHO-M1 cells, IP1 accumulation, HTRF TR-FRET ratio; measured here: donor channel 620 nm AC50. (Quantitative high-throughput screening tests each substance at several concentrations.)
On to `Cc1ccc(NC(=O)CCSc2nc(-c3ccc4c(c3)OCO4)cc(C(F)(F)F)n2)c(C)c1`, for which the AC50 was 20 µM [rising, partial curve].

In the case of `Cc1csc(SCC(=O)NC(=O)NCc2ccccc2)n1`, the AC50 was 0.251 µM [falling, full curve, poor fit].

For the compound `CCOc1ccc(OCC)c(NC(=O)C2CCCN(S(=O)(=O)c3c(C)noc3C)C2)c1` (centres undefined), the concentration at half-maximal activity (AC50) is 0.0126 µM [rising, full curve, poor fit].

Regarding `Cc1csc(=NC(=O)c2ccccc2)n1C`, the concentration at half-maximal activity (AC50) is 0.251 µM [falling, single point].

For the compound `O=C(O)CS(=O)(=O)CC(=O)O`, the AC50 is 0.282 µM [falling, full curve, poor fit].

Turning to `CCc1ccc(C2=NN(c3ccc(S(N)(=O)=O)cc3)C(c3ccc(F)cc3)C2)cc1` (centres undefined), the concentration at half-maximal activity (AC50) is 15.8 µM [rising, single point].

For the compound `CCOc1ccccc1/C=C(/NC(=O)c1ccccc1)C(=O)NCC(=O)O`, the AC50 is 0.00501 µM [falling, full curve, poor fit].

`CCC1(COC(=O)Nc2cccc(Cl)c2)COC1`: the half-maximal activity concentration (AC50) is 0.141 µM [falling, full curve, poor fit].

On to `c1ccc(CNc2nc(N3CCOCC3)nc(N3CCOCC3)n2)cc1`, for which the AC50 was 0.2 µM [rising, single point].

Consider `Oc1cnc2ccccc2c1CN1CCOCC1`, for which the AC50 was 25.1 µM [rising, partial curve, poor fit].

Take `CCc1c(C)c2ccc(O)c(CN(C)C)c2oc1=O`: the half-maximal activity concentration (AC50) was 12.6 µM [rising, single point].

In the case of `Cc1nc2ccc(S(=O)(=O)NC(C(=O)NCc3cccs3)C(C)C)cc2s1` (centres undefined), the AC50 is 31.6 µM [falling, single point].

Regarding `CC(Oc1ccccc1F)C(=O)Nc1ccc2ccccc2c1` (centres undefined), the half-maximal activity concentration (AC50) was 1 µM [falling, full curve].

As to `CC1=CC(c2ccccc2)n2nc(N3C(=O)CCC3=O)nc2N1` (centres undefined), the AC50 was 6.31 µM [falling, single point].

In the case of `COCCn1c(Cc2ccccc2)nnc1SCC(=O)N(C)C`, the AC50 was 0.141 µM [rising, partial curve].

With `O=C(O)CSc1ccc2ccccc2n1`, the AC50 was 25.1 µM [rising, single point].

As for `O=S(=O)(c1cccc2cccnc12)n1cnc2ccccc21`, the AC50 was 5.62 µM [falling, single point].

Turning to `Cc1ccc(C)c(N2CCN(C(=O)Cc3cn(C)c4ccccc34)CC2)c1`, the AC50 is 12.6 µM [falling, partial curve, poor fit].

On to `CC1CN(Cc2ccccc2Cl)CC(C)O1` (centres undefined), for which the AC50 was 2.51 µM [rising, single point].

Take `O=C(O)CNC(=O)CCN1C(=O)c2ccccc2C1=O`: the concentration at half-maximal activity (AC50) is 10 µM [falling, single point].

On to `COc1ccc(C(=O)CSc2nnc(COc3ccc(C#N)cc3)n2-c2ccccc2)cc1`, for which the concentration at half-maximal activity (AC50) was 1.58 µM [rising, partial curve, poor fit].

In the case of `COc1ccc(Nc2nc(-c3ccccc3)c3cc(Br)ccc3n2)cc1`, the AC50 was 0.178 µM [falling, full curve, poor fit].

As to `CCOC(=O)CSc1nc(N)c(C#N)c(-c2ccc(OC)cc2)c1C#N`, the AC50 is 31.6 µM [rising, single point].

Turning to `CCCC(=O)Nc1cc(C)c(NC(=O)Cc2ccccc2)cn1`, the half-maximal activity concentration (AC50) was 15.8 µM [rising, single point].

For `O=C(CCCOc1ccccc1)Nc1nccs1`, the AC50 was 0.1 µM [falling, full curve, poor fit].

Consider `COc1ccc(-n2c(Cc3cccn3C)nnc2SCC(=O)Nc2cccc(C)c2C)cc1`, for which the AC50 is 35.5 µM [falling, partial curve, poor fit].

With `O=C1C=CC2=C3c4cc(O)c(O)cc4CC3(O)COC2=C1O` (centres undefined), the AC50 was 12.6 µM [falling, partial curve].

On to `CC(C)c1c(O)nc(SCc2ccccc2)[nH]c1=O`, for which the half-maximal activity concentration (AC50) is 0.501 µM [falling, single point].

On to `CCCCOC(=O)C1CN(c2ccccc2)N=C1C(=O)OCC` (centres undefined), for which the AC50 is 2.24 µM [rising, partial curve].

As for `CCCN(CCC)C(=O)Cn1c2ccccc2c2nc(=O)cc(C)n21`, the AC50 was 31.6 µM [rising, single point].

In the case of `O=S(=O)(c1ccc(C2CCCCC2)cc1)N1CCCC1`, the half-maximal activity concentration (AC50) was 0.794 µM [falling, full curve].

In the case of `Cc1ccc(NC(=O)COC(=O)c2sccc2C)cc1S(=O)(=O)N1CCOCC1`, the AC50 is 0.0224 µM [falling, full curve, poor fit].

For `C#CCSc1nc(-c2ccccc2)cc(C(F)(F)F)c1C#N`, the AC50 is 12.6 µM [rising, partial curve].

`COc1cc(/C=N/NC(N)=S)ccc1OC(=O)c1ccc(C)cc1`: the concentration at half-maximal activity (AC50) was 25.1 µM [falling, single point].

As for `C=CCn1cc(C(=O)NCCCOCC)c(=O)c2cc(S(=O)(=O)N(CC)CC)ccc21`, the AC50 is 0.794 µM [rising, single point].

Turning to `Cc1ccc(CCNC(=O)C2CCN(S(=O)(=O)c3c(C)nn(C)c3C)CC2)cc1`, the concentration at half-maximal activity (AC50) was 1 µM [falling, full curve, poor fit].

In the case of `COC(=O)c1ccc2c(=O)sc(N3CCC(C(N)=O)CC3)nc2c1`, the AC50 was 25.1 µM [rising, single point].

Consider `COc1ccccc1N1CCN(C(c2ccccn2)c2nnnn2C2CCCCC2)CC1` (centres undefined), for which the concentration at half-maximal activity (AC50) was 15.8 µM [falling, partial curve].

Consider `CC1=C(C(=O)OC2CCCCCC2)C(c2ccccc2Cl)CC(=O)N1` (centres undefined), for which the AC50 is 2.24 µM [falling, partial curve].

On to `CC(C)OC(=O)c1c2nc3ccccc3nc2n2c1[nH]c(=O)c1ccccc12`, for which the concentration at half-maximal activity (AC50) is 25.1 µM [rising, single point].

As to `O=C(Nc1ccccc1C(F)(F)F)c1cc(S(=O)(=O)N2CCOCC2)ccc1F`, the AC50 was 0.2 µM [falling, full curve].

Regarding `Fc1cccc(Cl)c1Cc1noc(/C=C/c2ccccc2)n1`, the AC50 is 5.01 µM [rising, partial curve, poor fit].

As for `NCCCS(=O)(=O)O`, the concentration at half-maximal activity (AC50) is 0.0316 µM [falling, full curve, poor fit].

As for `Cc1ccn2c(Nc3ccc4c(c3)OCO4)c(-c3ccccn3)nc2c1`, the AC50 is 35.5 µM [falling, partial curve].

The record behind these values is PubChem BioAssay AID901 (National Center for Advancing Translational Sciences (NCATS), 2007).
